PubChem BioAssay AID1508588 – Peter MacCallum Cancer Centre – 2020
Aim: 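Genome-wide search for knock-downs that heighten vemurafenib action in melanoma cells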 (primary screen). Cells: human WM266.4 melanoma cells (BRAF V600 mutant). Reagents: siRNA pool against human genes, 40 nM. Timing: 96 h from transfection to read-out. Treatment: vemurafenib 300 nM (about IC25), added 48 h after transfection, for 48 h; comparison arm got DMSO vehicle only. Measured: 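Cell gain (DAPI nuclei at end minus before drug, mean of two replicates) and medium lactate by absorbance per cell, both as ratio to non-targeting siRNA, also grouped into fold-change classes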. Direction: cell gain with vemurafenib: higher = more cell gain than with non-targeting siRNA; lactate per cell with vemurafenib: higher = more lactate made per cell. Active means: 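a knock-down counts as enhancing when its fold-change classes with vehicle and with vemurafenib, taken together, show a stronger drug effect on cell gain or lactate per cell; exact class pairs not stated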. Meaning of the calls: active = enhances vemurafenib effect; inactive = no enhancement seen.
This is one part, drawn at random, of about 18,000 reagents tested. Of all reagents, 790 (4.4%) got an active call. 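Calls rest on a combination of fold-change classes in drug and vehicle arms, not all shown here.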

TCF23 (GeneID 150921) | cell gain with vemurafenib = 0.35; lactate per cell with vemurafenib = 1.52; call = inactive
FZD6 (GeneID 8323) | cell gain with vemurafenib = 0.99; lactate per cell with vemurafenib = 1.19; call = inactive
DPM1 (GeneID 8813) | cell gain with vemurafenib = 1.26; lactate per cell with vemurafenib = 0.5; call = inactive
MRE11 (GeneID 4361) | cell gain with vemurafenib = 0.54; lactate per cell with vemurafenib = 0.74; call = inactive
LARP1B (GeneID 55132) | cell gain with vemurafenib = 0.98; lactate per cell with vemurafenib = 0.92; call = inactive
KLHDC2 (GeneID 23588) | cell gain with vemurafenib = 0.36; lactate per cell with vemurafenib = 0.48; call = active
CDKN3 (GeneID 1033) | cell gain with vemurafenib = 0.65; lactate per cell with vemurafenib = 1; call = inactive
GYS1 (GeneID 2997) | cell gain with vemurafenib = 0.66; lactate per cell with vemurafenib = 1.16; call = inactive
EIF3H (GeneID 8667) | cell gain with vemurafenib = 0.45; lactate per cell with vemurafenib = 0.56; call = inactive
CDK2AP2 (GeneID 10263) | cell gain with vemurafenib = 0.24; lactate per cell with vemurafenib = 0.95; call = inactive
RTN3 (GeneID 10313) | cell gain with vemurafenib = 0.78; lactate per cell with vemurafenib = 1.03; call = inactive
STK35 (GeneID 140901) | cell gain with vemurafenib = 0.27; lactate per cell with vemurafenib = 0.52; call = inactive
CCDC167 (GeneID 154467) | cell gain with vemurafenib = 0.52; lactate per cell with vemurafenib = 0.88; call = inactive
NFE2L2 (GeneID 4780) | cell gain with vemurafenib = 0.56; lactate per cell with vemurafenib = 1.09; call = inactive
ZFX (GeneID 7543) | cell gain with vemurafenib = 0.61; lactate per cell with vemurafenib = 1; call = inactive
FGF18 (GeneID 8817) | cell gain with vemurafenib = 0.58; lactate per cell with vemurafenib = 0.8; call = inactive
USP9X (GeneID 8239) | cell gain with vemurafenib = 0.95; lactate per cell with vemurafenib = 0.77; call = inactive

Records listed above marked active, once more:
KLHDC2 (GeneID 23588) | cell gain with vemurafenib = 0.36; lactate per cell with vemurafenib = 0.48; call = active

The listing continues.
WHAMM (GeneID 123720) | cell gain with vemurafenib = 0.67; lactate per cell with vemurafenib = 0.97; call = inactive
ZCWPW1 (GeneID 55063) | cell gain with vemurafenib = 0.62; lactate per cell with vemurafenib = 0.34; call = active
SCGB1D4 (GeneID 404552) | cell gain with vemurafenib = 0.81; lactate per cell with vemurafenib = 0.86; call = inactive
GNGT1 (GeneID 2792) | cell gain with vemurafenib = -0.07; lactate per cell with vemurafenib = 0.98; call = inactive
ZRSR2 (GeneID 8233) | cell gain with vemurafenib = 0.77; lactate per cell with vemurafenib = 0.6; call = inactive
PPP6R1 (GeneID 22870) | cell gain with vemurafenib = 0.54; lactate per cell with vemurafenib = 1.12; call = inactive
FOXRED1 (GeneID 55572) | cell gain with vemurafenib = 0.41; lactate per cell with vemurafenib = 1.27; call = inactive
CENPB (GeneID 1059) | cell gain with vemurafenib = 1.22; lactate per cell with vemurafenib = 0.7; call = inactive
TAS2R31 (GeneID 259290) | cell gain with vemurafenib = 0.53; lactate per cell with vemurafenib = 0.19; call = active
PCBD2 (GeneID 84105) | cell gain with vemurafenib = 0.59; lactate per cell with vemurafenib = 0.96; call = inactive
